The values below come from article PMC7819943, “Rice protein-binding microarrays: a tool to detect cis-acting elements near promoter regions in rice”.

The list shows a part of the results.

The target in this assay is T1, OsSMF1 (Oryza sativa, UniProt Q6ZLB0 1-436).
T1 sequence: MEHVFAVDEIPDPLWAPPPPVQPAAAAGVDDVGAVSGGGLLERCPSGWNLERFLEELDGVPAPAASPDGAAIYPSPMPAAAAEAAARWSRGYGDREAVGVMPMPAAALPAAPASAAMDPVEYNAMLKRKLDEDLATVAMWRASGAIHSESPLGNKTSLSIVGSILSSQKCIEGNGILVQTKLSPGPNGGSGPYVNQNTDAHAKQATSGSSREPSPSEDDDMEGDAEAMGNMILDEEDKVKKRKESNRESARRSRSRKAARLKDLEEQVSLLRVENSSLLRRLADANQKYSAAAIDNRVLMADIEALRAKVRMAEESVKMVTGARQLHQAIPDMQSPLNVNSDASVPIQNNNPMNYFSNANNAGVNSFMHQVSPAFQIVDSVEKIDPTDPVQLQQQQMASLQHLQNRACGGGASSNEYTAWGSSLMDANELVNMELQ
The assay is described as follows: protein-binding microarray (RPBM); PBS, 2% BSA, 51.3 ng/ul salmon testes DNA, 50 uM zinc acetate, 200 nM TF, 25 C, 1 h; high values mean tight binding. The following applies: protein: recombinant; tags: N-terminal polyhistidine and DsRed monomer fusion (pET32a); chain copies: 2; label: CyDye5-dUTP incorporated in the synthesized complementary strand; 3' TTTTT single-stranded linker to array surface; dsDNA, one strand shown. A digest of the protocol: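 The binding signal is fluorescence intensity per array feature (arbitrary units). Readings came from an Axon 4000B scanner after a washed, 2% BSA-blocked, double-stranded custom Agilent array had been incubated for 1 h at 25 °C with 200 nM protein and 50 µM zinc acetate. The protein was a Ni–NTA-purified transcription factor fused N-terminally to polyhistidine and DsRed, expressed in E. coli BL21-CodonPlus.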
As for “CCCGAGAGCCGTACGTACTACAGAAATACAAGTGCTAACTCGGAGTCACCTAGTGCAG”, the binding signal is 35900 fluorescence intensity (a.u.).

Regarding “CCTCCTTGCTTGCTTACATTGCCGCCACCGCCACCTCACACGGAGTCACCTAGTGCAG”, the binding signal was 8360 fluorescence intensity (a.u.). Consider “CCTCTAATACGTGGGAGGTGGCGGCAGTGGCTAATCCGTACGGAGTCACCTAGTGCAG”, for which the binding signal is 3790 fluorescence intensity (a.u.). With “TCTTTGCTGACTAGATTGCCATGTTGGCACCATATGTATACGGAGTCACCTAGTGCAG” the figure was 18300 fluorescence intensity (a.u.); with “GCAGAGGGTCCCGATAACGATGACCCTACCTGCCAGTCAACGGAGTCACCTAGTGCAG”, 4090 fluorescence intensity (a.u.); with “GGTGAGCGACGATGGCGATGGCGTCGTCGTCGTCGGCGTCCGGAGTCACCTAGTGCAG”, 37700 fluorescence intensity (a.u.).

For the sequence “AGAGAGATAGTGGTGGTGGTGGTGGGGCACTGAGAATCCACGGAGTCACCTAGTGCAG”, the binding signal is 17600 fluorescence intensity (a.u.). Consider “AATCGTAGTGTAATTACACTGTAACTTGCATGTAACTACACGGAGTCACCTAGTGCAG”, for which the binding signal is 21300 fluorescence intensity (a.u.). With “CCGTTCTCCAGATCCGCACCGCCACCGCCGCCGCCGCGCGCGGAGTCACCTAGTGCAG” the figure was 3250 fluorescence intensity (a.u.). Take “CAAGAATGTACTGAGTACGTCTCAATCCACGTGTTTGAGCCGGAGTCACCTAGTGCAG”: the binding signal is 4960 fluorescence intensity (a.u.).

For the sequence “CAACTCAAATGCTTTAACAATGTCGGATGACATGGAATGACGGAGTCACCTAGTGCAG”, the binding signal was 6080 fluorescence intensity (a.u.). With “ATTGTGCTCAAAATAATAAATCCTGACGTCAATTGTCGTCCGGAGTCACCTAGTGCAG” the figure was 4590 fluorescence intensity (a.u.); with “CCACCGCCACTCCCACCCAACCACAGTTCTAGTCTCCCCTCGGAGTCACCTAGTGCAG”, 26000 fluorescence intensity (a.u.). The same measure for “TGGGCGTCGGCCTGCGCGAGCAGAGGCGCCACGGGGCTCCCGGAGTCACCTAGTGCAG”: 3320 fluorescence intensity (a.u.). With “TGGTTTGCGGTGGTGCGCGCGCGGCTTCTTCTCGGGGTGGCGGAGTCACCTAGTGCAG” the figure was 3650 fluorescence intensity (a.u.); with “AATGGGCATGGTGAAACTTGGCAGTGACAAGGGATTTGCACGGAGTCACCTAGTGCAG”, 3620 fluorescence intensity (a.u.). With “CGAGAGACGCGTCACCTCCTCCCCGCCGCCGCCGCCGCCGCGGAGTCACCTAGTGCAG”, the binding signal is 7500 fluorescence intensity (a.u.). Consider “TCTCTCGAATTCGCGAACACGCGACACGACGTCATTTTCTCGGAGTCACCTAGTGCAG”, for which the binding signal was 6350 fluorescence intensity (a.u.). The same measure for “CAGAATCTAAAGCTCCCTCAAACAGGCCATATATCGATCCCGGAGTCACCTAGTGCAG”: 3160 fluorescence intensity (a.u.); for “CAAGGCAGTCATTTTGCCCTCGGATCGGGTGACGTGGCGCCGGAGTCACCTAGTGCAG”: 36500 fluorescence intensity (a.u.); for “CGATGACTGAATTATCACACTTACGTATGGTGACTATTAACGGAGTCACCTAGTGCAG”: 3500 fluorescence intensity (a.u.). With “TTGCTAGTATTTTGGTACGTCACCTGTATTGGAGTCAGTTCGGAGTCACCTAGTGCAG” the figure was 5540 fluorescence intensity (a.u.). The same measure for “ATGTGTTCTGATAGTAATAAACAAATATGTTATATTACTACGGAGTCACCTAGTGCAG”: 3270 fluorescence intensity (a.u.).
